Results as given in the supplement of paper PMC12819154, “High-throughput peptide-centric local stability assay extends protein–ligand identification to membrane proteins, tissues and bacteria” (Nature Structural & Molecular Biology, 2025).
The other results are listed elsewhere or left out. Small differences around the control level are noise.

Amino acid sequences for entries named in this document (tags omitted). A change or cut given only in a name is not applied to a line headed by its entry.
UniProt Q96BX8: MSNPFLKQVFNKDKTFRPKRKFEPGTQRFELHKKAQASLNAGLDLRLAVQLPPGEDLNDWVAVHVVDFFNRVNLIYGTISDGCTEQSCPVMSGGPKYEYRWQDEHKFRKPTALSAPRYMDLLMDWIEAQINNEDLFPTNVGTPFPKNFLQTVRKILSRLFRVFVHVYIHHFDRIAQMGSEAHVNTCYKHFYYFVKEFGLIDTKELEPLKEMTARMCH
UniProt Q96E14: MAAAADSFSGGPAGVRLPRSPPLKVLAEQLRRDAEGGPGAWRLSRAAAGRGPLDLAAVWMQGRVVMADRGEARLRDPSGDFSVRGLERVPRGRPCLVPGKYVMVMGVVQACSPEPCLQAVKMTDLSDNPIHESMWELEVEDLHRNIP
UniProt Q96BS2: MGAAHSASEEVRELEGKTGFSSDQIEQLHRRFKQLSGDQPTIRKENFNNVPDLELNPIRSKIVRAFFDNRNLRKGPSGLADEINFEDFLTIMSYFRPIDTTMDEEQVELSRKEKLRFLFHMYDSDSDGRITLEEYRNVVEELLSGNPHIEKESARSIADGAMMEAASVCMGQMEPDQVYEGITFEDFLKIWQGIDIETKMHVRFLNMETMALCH
UniProt Q96GE5: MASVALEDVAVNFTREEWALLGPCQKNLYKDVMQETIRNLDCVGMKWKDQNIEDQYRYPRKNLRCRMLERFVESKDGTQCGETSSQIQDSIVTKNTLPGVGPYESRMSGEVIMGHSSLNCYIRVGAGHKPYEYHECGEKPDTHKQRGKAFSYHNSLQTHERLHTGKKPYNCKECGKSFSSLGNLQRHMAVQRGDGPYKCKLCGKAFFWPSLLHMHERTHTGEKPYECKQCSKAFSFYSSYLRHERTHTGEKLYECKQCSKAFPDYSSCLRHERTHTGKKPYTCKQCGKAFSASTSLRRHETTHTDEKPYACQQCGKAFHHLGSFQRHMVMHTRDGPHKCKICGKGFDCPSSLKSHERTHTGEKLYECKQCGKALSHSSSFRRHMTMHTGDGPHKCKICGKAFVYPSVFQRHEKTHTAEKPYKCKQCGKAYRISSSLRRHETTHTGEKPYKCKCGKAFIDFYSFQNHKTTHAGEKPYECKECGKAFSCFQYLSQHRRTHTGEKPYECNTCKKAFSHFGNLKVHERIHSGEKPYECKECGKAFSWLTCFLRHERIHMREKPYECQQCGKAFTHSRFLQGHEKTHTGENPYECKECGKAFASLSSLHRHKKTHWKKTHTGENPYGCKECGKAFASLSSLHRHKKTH
UniProt Q96BZ8: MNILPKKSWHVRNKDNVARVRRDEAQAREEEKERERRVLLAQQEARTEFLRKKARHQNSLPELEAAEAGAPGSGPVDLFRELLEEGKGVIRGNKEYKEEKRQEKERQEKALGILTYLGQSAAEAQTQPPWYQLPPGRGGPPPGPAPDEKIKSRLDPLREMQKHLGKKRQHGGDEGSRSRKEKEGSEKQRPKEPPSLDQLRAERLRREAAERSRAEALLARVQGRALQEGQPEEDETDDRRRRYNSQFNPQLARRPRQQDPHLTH
UniProt Q92930: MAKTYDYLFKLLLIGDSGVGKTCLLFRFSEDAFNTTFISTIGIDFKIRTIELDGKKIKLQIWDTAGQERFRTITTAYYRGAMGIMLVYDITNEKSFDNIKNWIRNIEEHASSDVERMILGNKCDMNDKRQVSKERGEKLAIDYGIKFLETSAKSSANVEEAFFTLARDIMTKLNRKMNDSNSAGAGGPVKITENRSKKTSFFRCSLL
UniProt Q96BW9: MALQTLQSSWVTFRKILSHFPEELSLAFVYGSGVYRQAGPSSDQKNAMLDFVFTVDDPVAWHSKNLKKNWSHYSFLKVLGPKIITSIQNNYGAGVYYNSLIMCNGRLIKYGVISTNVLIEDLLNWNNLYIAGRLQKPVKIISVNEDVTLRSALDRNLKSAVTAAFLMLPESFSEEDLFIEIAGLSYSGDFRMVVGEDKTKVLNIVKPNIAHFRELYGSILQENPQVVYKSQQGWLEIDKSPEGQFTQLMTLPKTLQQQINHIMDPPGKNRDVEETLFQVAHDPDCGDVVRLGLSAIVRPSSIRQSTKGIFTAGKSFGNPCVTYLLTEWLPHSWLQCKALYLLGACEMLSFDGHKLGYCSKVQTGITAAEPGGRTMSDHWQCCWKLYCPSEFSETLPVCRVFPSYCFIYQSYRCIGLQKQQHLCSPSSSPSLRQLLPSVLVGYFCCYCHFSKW

These targets were tested with CN[C@@H]1C[C@H]2O[C@@](C)([C@@H]1OC)n1c3ccccc3c3c4c(c5c6ccccc6n2c5c31)C(=O)NC4 [staurosporine] (assay: log2 fold change of tryptic peptide abundance, ligand vs vehicle (limited proteolysis) (log2 ratio); higher = more trypsin-susceptible (destabilized)). Conditions: ligand concentration: 20 uM; sample: K562 cleared lysate; digestion: 4 min, 22 C (HT-PELSA RT4min, Orbitrap Astral).

Row | Target | log2 fold change
1 | UniProt Q96BX8 (peptide sequence: DKTFRPK, peptide start residue: 12) | 0.207
2 | RMI2 (peptide sequence: SPPLKVLAEQLR, peptide start residue: 20) (UniProt Q96E14) | 0.283
3 | TESC (peptide sequence: FLFHMYDSDSDGR, peptide start residue: 117) (UniProt Q96BS2) | -0.141
4 | UniProt Q96GE5 (peptide sequence: NTLPGVGPYESR, peptide start residue: 95) | 0.0852
5 | LENG1 (peptide sequence: GGPPPGPAPDEK, peptide start residue: 138) (UniProt Q96BZ8) | -0.119
6 | RAB8B (peptide sequence: MNDSNSAGAGGPVK, peptide start residue: 177) (UniProt Q92930) | 0.00195
7 | UniProt Q96BW9 (peptide sequence: LGLSAIVRPSSIR, peptide start residue: 291) | 0.0137
8 | NRBF2 (peptide sequence: YEEAISCHK, peptide start residue: 27) (UniProt Q96F24) | 0.491
